{"source": "patent US20210261971A1", "about": "“COMPOSITIONS AND METHODS FOR AMELIORATING TISSUE INJURY, ENHANCING LIVER REGENERATION AND STEM CELL THERAPIES” (UNIVERSITY OF SOUTHERN CALIFORNIA, priority 2018, published 2021)", "format_in_all_cases": "in vivo, rat", "key": {"[1]": {"system": "BM sprocs", "test": "Hepatic engraftment of GFP+ BM sprocs after PH (% GFP+ LSECs, EGFP bone marrow transplant)", "source_text": "FIG. 7D illustrates the percentage of liver sinusoidal endothelial cells (LSECs) that are bone marrow-derived, i.e. derived from BM sprocs (y-axis labeled % GFP+ LSECs). Hepatic engraftment determined as the percentage of bone marrow-derived LSECs after PH is enhanced by MMP-9 ASO or intraportal MMP inhibitor, whereas systemic inhibition of MMP by doxycycline or intraperitoneal MMP inhibitor reduces hepatic engraftment of BM sprocs. Rats were transplanted with bone marrow from a transgenic EGFP rat to allow tracking of bone marrow cells. Rats were treated with one month of ASO, 2 days of doxycycline, or infusion with the MMP inhibitor followed by partial hepatectomy. On day 2 LSECs were isolated and the percentage of GFP+ LSECs was determined by flow cytometry.\nBone marrow transplantation. BM cells were obtained from one tibia and femur from the donor. Recipients underwent 1,000 cGy total body irradiation and were injected via tail vein with 50 million BM cells. Rats received oxytetracycline (200 mg/ml) diluted 1:1,000 in the drinking water starting two days before irradiation and continuing until one week after irradiation. BM was allowed to engraft for 2 months before use. […]\nLSEC isolation. […] Purity of the cells was 99%, as determined by uptake of formaldehyde-treated serum albumin (kind gift from Bard Smedsrod, University of Tromso, Tromso, Norway), a function specific to LSECs. […]"}, "[2]": {"system": "BM sprocs (CD133+45+31+ cells)", "test": "Recruitment of BM sprocs after PH: number in bone marrow and circulation by immunomagnetic selection and flow cytometry", "description": "Sproc isolation. BM and circulating sprocs were isolated by immunomagnetic selection for CD133 using a CD133 Cell Isolation Kit (Miltenyi Biotec, Auburn, Calif.) and separation with an autoMACS Pro (Miltenyi Biotec, Auburn, Calif.), followed by FACS sorting for CD45 and CD31 (FIG. 26, or Supporting Fig S1).\nTo determine the number of sprocs in the circulation and BM from Lewis rats 6 hours after partial hepatectomy, CD133+ cells were isolated by immunomagnetic selection for CD133 from peripheral blood or BM. Cell suspensions were preblocked with FcR blocking reagent and incubated for 60 minutes with antibodies to rat CD45 and CD31. CD133+45+31+ cells were quantified by flow cytometry. In some experiments cells were also stained with antibody to rat CXCR7, to identify CD133+45+31+CXCR7+ cells in the circulation.\nFlow cytometry. Flow cytometry was performed using a FACSCalibur (BD Biosciences). Isotype control antibodies were used to determine appropriate gates, voltages, and compensation required for multivariate flow cytometry. Cell Quest Pro software was used for analysis"}, "[3]": {"system": "Lewis rats", "test": "Liver regeneration after two-thirds partial hepatectomy (PH): liver-to-body weight ratio, Ki-67 proliferation", "conditions": "day 2 after PH", "description": "Partial (70%) hepatectomy was performed under general anesthesia with ketamine-xylazine (80-90 mg/kg ip). For 70% partial hepatectomy, the median and left lateral lobes were removed. Buprenorphine SR (1 mg/kg) was used postoperatively for analgesia.\nLiver-selective MMP-9 inhibition: Knockdown of MMP-9 was achieved by injection of one of two MMP-9 antisense oligonucleotides that were a kind gift from Ionis Pharmaceuticals (Ions No 283953 and 283973, Carlsbad, Calif.; 20 mg/kg intraperitoneally twice weekly for 4 weeks.\nSystemic MMP inhibition: Doxycycline (Sigma, St. Louis), 15 mg/kg i.g., was given twice daily starting 2 days before the relevant study. Control studies were performed with the same dose of a chemically modified tetracycline, isochlorotetracycline, which is only a weak MMP inhibitor. […]\nKi-67 positive cells were determined using photographs taken with a 20×-objective in 15 lobules per rat, n=3. To assess the percentage of proliferating hepatocytes and non-parenchymal cells, slides were coded and the percentage Ki-67 positive cells was determined blindly by X.W. To determine zonation of proliferating cells, each lobule was divided into three even fields and the total number of ki-67 positive cells/field was counted."}, "[4]": {"system": "MMP-9", "test": "Immunoblot of hepatic pro-MMP-9 and bone marrow extracellular fluid MMP-9/pro-MMP-9 after PH", "conditions": "6 hours after PH", "description": "Immunoblotting. Samples from freshly isolated liver were harvested using triple lysis buffer (TLB: 50 mM Tris base, 150 mM NaCl, 3 mM sodium azide, 12 mM sodium deoxycholate, 0.1% SDS, 1% Nonidet-P40) supplemented with 2 mM phenylmethylsulphonyl fluoride (PMSF), 1 mM sodium orthovanadate and 1% protease inhibitors cocktail (Santa Cruz sc-24948). Proteins were purified by centrifugation at 15,000 g at 4° C. for 10 min and quantified using DC™ Protein Assay Kit (BioRad). The samples obtained from bone marrow extracellular fluid were preserved in PBS. For MMP-9 analysis, 100 μg of total protein was used from each sample per lane and resolved on NUPAGE™ NOVEX™ 10% Bis-Tris Protein Gels using MOPS running buffer. Proteins were transferred onto 0.45 μm nitrocellulose membranes via electroblotting using XCell II™ Blot Module (Invitrogen), for 1 h, 30V. For SDF-1 and VEGF analysis, 75 μg of total protein was used from each sample per lane and resolved on NUPAGE™ NOVEX™ 4-12% Bis-Tris Protein Gels using MES running buffer. Proteins were transferred onto 0.2 μm nitrocellulose membranes via electroblotting using Trans-blot SD Semi-Dry Transfer Cell™ (Bio-rad), for 20 min, 25V. Membranes were blocked using NAP-BLOCKER™. […] Membrane digital images were acquired with the Odyssey Infrared Imaging System (LI-COR) and analyzed using the LI-COR IMAGE STUDIO™. […]"}, "[5]": {"system": "infused allogeneic sprocs", "test": "Model of stem cell therapy: engraftment of infused GFP+ allogeneic sprocs after PH", "conditions": "for engraftment of infused allogeneic sprocs (% GFP+ LSECs): two days and three months after infusion", "description": "FIG. 8 graphically illustrates the percent LSECs as a function of engraftments of infused allogenic sprocs, and examines the concept that impairment of BM release of sprocs will favor engraftment of exogenously infused progenitor cells. […] When the percentage of cells derived from the GFP+ allogeneic progenitors was examined at 3 months, 1.5% were GFP+ in the control group versus 14% in the doxycycline group (data not shown). Method: rats were pre-treated with 2 days of doxycycline, 15 mg/kg intra-gastrically twice daily, followed by partial hepatectomy. 1 million sprocs were isolated from the livers of GFP+ rats and infused by tail vein injection. On day 2 and after 3 months LSECs were isolated and the number of GFP+ cells was determined by flow cytometry. Increased ischemia-reperfusion injury in Non-Alcoholic Fatty Liver Disease (NAFLD) due to impaired sdf-1 signaling to bone marrow sprocs can be attenuated by liver-selective MMP inhibition: Systemic MMP inhibition: Doxycycline (Sigma, St. Louis), 15 mg/kg i.g., was given twice daily starting 2 days before the relevant study. Control studies were performed with the same dose of a chemically modified tetracycline, isochlorotetracycline, which is only a weak MMP inhibitor. In other experiments, MMP-2/9 was inhibited by infusing 2-[(4-biphenylsulfonyl)amino]-3-phenyl-propionic acid, 100 μg/kg/h, intraperitoneally with an Alzet mini-osmotic pump (model 2001, Durect Corporation, Cupertino Calif.). LSEC isolation. LSECs were isolated by collagenase perfusion, iodixanol density gradient centrifugation, and centrifugal elutriation, as previously described (22, 23). Yields averaged 86×10^6 cells per normal rat liver (range 69-95×10^6) with average viability of 94% (range 91-96%). Purity of the cells was 99%, as determined by uptake of formaldehyde-treated serum albumin (kind gift from Bard Smedsrod, University of Tromso, Tromso, Norway), a function specific to LSECs. Cells isolated by this protocol have an appropriate range of fenestrae organized in sieve plates. To isolate resident sprocs, LSEC were isolated as described above and the CD133+ fraction was obtained by immunomagnetic selection (3)."}}, "note": "“Also recorded” adds a separate entry of the source. At least one compound was matched to its structure with a doubt left."}
{"molecule": "C[C@H]1c2cccc(O)c2C(=O)C2=C(O)[C@]3(O)C(=O)C(C(N)=O)=C(O)[C@@H](N(C)C)[C@@H]3[C@@H](O)[C@@H]21", "note": "[doxycycline, Doxycycline]", "values": [{"measurement": "hepatic engraftment of BM sprocs (% GFP+ LSECs)", "setting": "[1]", "result": "reduces"}, {"measurement": "number of circulating CXCR7+ sprocs", "setting": "[2]; 6 hours after PH", "result": "reduced"}, {"measurement": "number of BM sprocs (CD133+45+31+) in the circulation", "setting": "[2]; after PH", "result": "decreases; also recorded: significantly reduced"}, {"measurement": "number of sprocs in the BM", "setting": "[2]; after two-thirds PH", "result": "increase; also recorded: increased the number of sprocs in the BM significantly more than MMP-ASO/PH; also recorded: even higher"}, {"measurement": "hepatocyte proliferation (ki-67) compared to respective control", "setting": "[3]", "result": "reduces"}, {"measurement": "increase of hepatic MMP-9 protein expression after PH", "setting": "[4]", "result": "abrogated"}, {"measurement": "increase of engraftment of infused sprocs", "setting": "[5]; 3 months", "result": "almost ten-fold"}, {"measurement": "increase of engraftment of infused sprocs", "setting": "[5]; day 2 after infusion", "result": "seven-fold"}, {"measurement": "engraftment of infused allogeneic sprocs (% GFP+ LSECs)", "setting": "[5]", "result": "significantly increases"}, {"measurement": "engraftment of infused allogeneic sprocs (% GFP+ LSECs)", "setting": "[5]; listed as Doxycycline", "result": "enhances"}]}
